Test [1] deals with Myc-tagged EphA4 (wild-type, from B6 mouse brain cDNA, pcDNA3 with Igk-Myc-tag at the N-terminus) (mouse) (UniProt Q03137). The test is described as follows: co-precipitation with ephrinA1-Fc from transfected 293T lysates, immunoblot. A general note: In western blotting, separated proteins are transferred to a membrane and probed.
Test [2] deals with Myc-tagged EphA4^FF (Y596F/Y602F) mutant (mouse) (UniProt Q03137). The description is as above.
The target of test [3] is Myc-tagged EphA4 (wild-type, from B6 mouse brain cDNA, pcDNA3 with Igk-Myc-tag at the N-terminus) (mouse) (UniProt Q03137). Nature of the test: co-precipitation with ephrinA1-Fc from transfected 293T lysates, anti-HA / anti-Myc immunoblot.
Test [4] has as its target Myc-tagged EphA4^FF (Y596F/Y602F) mutant (mouse) (UniProt Q03137). The test is described as above.
The target of test [5] is Myc-tagged EphA4 (wild-type, from B6 mouse brain cDNA, pcDNA3 with Igk-Myc-tag at the N-terminus) (mouse) (UniProt Q03137). Nature of the test: GST-fusion pull-down from lysate of HEK293T cells with Myc-EphA4, anti-Myc immunoblot.
Test [6] deals with endogenous EphA4 of wild-type mouse cortex (mouse) (UniProt Q03137). Nature of the test: co-immunoprecipitation with α-chimerin-specific antibody from developing mouse motor cortex lysates, immunoblot.
Test [7] shares this target. The test is described as follows: co-immunoprecipitation with anti-α2-chimerin antibody from P3 mouse cortex lysates, immunoblot.

Sequences of proteins named here, by UniProt entry; tags and fusion partners are left off. A change or cut given only in a name is not applied to a line headed by its entry. A line that says so, or that is headed by a name, gives the form on record, which may keep a tag or linker. Residues count along the entry.
Myc-tagged EphA4 (wild-type, from B6 mouse brain cDNA, pcDNA3 with Igk-Myc-tag at the N-terminus) (Q03137, residues 20-986): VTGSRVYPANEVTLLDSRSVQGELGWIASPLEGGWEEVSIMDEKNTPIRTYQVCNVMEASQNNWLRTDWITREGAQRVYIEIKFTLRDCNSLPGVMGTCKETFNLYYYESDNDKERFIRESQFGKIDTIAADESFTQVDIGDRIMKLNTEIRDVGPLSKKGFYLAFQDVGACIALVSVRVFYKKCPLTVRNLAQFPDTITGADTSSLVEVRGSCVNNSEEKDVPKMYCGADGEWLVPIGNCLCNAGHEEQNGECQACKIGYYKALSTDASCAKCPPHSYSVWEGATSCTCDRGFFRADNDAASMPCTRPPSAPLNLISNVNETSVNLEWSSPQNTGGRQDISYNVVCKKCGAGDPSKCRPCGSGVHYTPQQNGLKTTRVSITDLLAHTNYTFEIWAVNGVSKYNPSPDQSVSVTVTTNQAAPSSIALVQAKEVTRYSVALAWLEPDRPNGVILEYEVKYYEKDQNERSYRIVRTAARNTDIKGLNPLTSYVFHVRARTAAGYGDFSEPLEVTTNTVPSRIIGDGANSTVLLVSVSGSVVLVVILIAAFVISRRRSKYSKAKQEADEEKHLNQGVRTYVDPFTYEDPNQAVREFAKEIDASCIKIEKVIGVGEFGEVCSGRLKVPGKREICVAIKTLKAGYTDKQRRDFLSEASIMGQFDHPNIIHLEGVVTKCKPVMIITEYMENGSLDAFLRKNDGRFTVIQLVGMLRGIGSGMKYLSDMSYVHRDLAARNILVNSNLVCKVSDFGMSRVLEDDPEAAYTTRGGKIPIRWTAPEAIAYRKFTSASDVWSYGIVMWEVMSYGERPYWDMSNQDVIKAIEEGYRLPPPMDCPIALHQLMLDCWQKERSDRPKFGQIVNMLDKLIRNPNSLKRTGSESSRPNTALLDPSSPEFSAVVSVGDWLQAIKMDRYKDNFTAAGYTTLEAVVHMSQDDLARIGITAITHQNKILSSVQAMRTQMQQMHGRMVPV
Myc-tagged EphA4^FF (Y596F/Y602F) mutant (Q03137, form named): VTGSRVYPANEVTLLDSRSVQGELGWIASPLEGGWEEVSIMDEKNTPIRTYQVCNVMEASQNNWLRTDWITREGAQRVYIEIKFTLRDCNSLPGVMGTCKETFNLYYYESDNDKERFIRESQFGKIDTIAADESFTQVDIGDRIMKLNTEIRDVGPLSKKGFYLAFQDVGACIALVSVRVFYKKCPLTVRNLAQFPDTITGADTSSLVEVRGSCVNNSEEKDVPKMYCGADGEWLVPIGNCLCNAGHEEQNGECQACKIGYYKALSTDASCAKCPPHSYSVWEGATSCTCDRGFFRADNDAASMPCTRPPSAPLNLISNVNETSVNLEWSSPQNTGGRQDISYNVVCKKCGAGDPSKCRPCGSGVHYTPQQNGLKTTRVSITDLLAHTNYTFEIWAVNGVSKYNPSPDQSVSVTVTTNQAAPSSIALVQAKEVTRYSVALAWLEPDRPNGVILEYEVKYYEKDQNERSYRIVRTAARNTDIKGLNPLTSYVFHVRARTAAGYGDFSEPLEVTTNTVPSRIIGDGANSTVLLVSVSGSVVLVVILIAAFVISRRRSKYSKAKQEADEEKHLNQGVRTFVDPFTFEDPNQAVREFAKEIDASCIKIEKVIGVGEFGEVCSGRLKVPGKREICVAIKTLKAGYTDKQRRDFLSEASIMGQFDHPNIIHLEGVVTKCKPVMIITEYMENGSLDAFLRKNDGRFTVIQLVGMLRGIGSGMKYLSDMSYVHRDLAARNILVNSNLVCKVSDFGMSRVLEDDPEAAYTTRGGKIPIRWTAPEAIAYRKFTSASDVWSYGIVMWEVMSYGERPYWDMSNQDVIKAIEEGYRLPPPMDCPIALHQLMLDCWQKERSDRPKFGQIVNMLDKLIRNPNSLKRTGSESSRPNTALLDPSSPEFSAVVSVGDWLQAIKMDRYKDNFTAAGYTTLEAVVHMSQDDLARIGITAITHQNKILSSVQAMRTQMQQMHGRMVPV

Results are given in words; binding and its absence hold for the method and conditions named. Binding seen in cells or lysates may run through a third protein. Some entries that bind do so weakly or less than the wild type. For some of these results: Sequences can lack the tags named with a protein.

B1: HA-tagged wild-type α2-chimerin (pEF-BOS, HA-tag at the N-terminus) (protein, not shown: small tags and cut ends)
chain: MALTLFDTDEYRPPVWKSYLYQLQQEAPHPRRVTCTCEVENRPKYYGREYHGMISREETDQLLSVAEGSYLIRESQRQPGTYTLALRFGSQTRNFRLYYDGKHFVGEKRFESIHDLVTDGLITLYIETKAAEYIAKMTINPIYEHIGYTTLNREPAYKQHMAVLKETHDEKEATGQDGVSEKRLTSLVRRATLKENEQIPKYEKVHNFKVHTFRGPHWCEYCANFMWGLIAQGVKCADCGLNVHKQCSKMVPNDCKPDLKHVKKVYSCDLTTLVKAHITKRPMVVDMCIREIESRGLNSEGLYRVSGFSDLIEDVKMAFDRDGEKADISVNMYEDINIITGALKLYFRDLPIPLITYDAYPKFIESAKIMDPDEQLETLHEALRSLPPAHCETLRYLMAHLKRVTLHEKENLMSAENLGIVFGPTLMRSPELDPMAALNDIRYQRLVVELLIKNEDILF
Turning to B1, the binding result in test [1], in test [2], in test [3] and in test [4] was “binds” each time.

B2: GST-fused full-length α2-chimerin (recombinant, from E. coli) (protein, mouse, UniProt Q91V57 1-459, looked up, not shown: a dimerising Fc or GST)
chain: B1 chain
Turning to B2, the binding entry in test [5] is given as “binds”.

B3: HA-tagged wild-type α1-chimerin (pEF-BOS, HA-tag at the N-terminus) (protein, mouse, UniProt Q91V57-2 1-334, looked up, not shown: small tags and cut ends)
chain: MPSKESWSGRKANRATVHKAKPEGRQQGLLIAALGMKLGSQKSSVTIWQPLKLFAYSQLTSLVRRATLKENEQIPKYEKVHNFKVHTFRGPHWCEYCANFMWGLIAQGVKCADCGLNVHKQCSKMVPNDCKPDLKHVKKVYSCDLTTLVKAHITKRPMVVDMCIREIESRGLNSEGLYRVSGFSDLIEDVKMAFDRDGEKADISVNMYEDINIITGALKLYFRDLPIPLITYDAYPKFIESAKIMDPDEQLETLHEALRSLPPAHCETLRYLMAHLKRVTLHEKENLMSAENLGIVFGPTLMRSPELDPMAALNDIRYQRLVVELLIKNEDILF
On to B3, for which the binding result in test [1], in test [2], in test [3] and in test [4] was “binds” each time.

B4: endogenous α2-chimerin of wild-type mouse brain and spinal cord (protein, UniProt Q91V57 2-459, looked up)
chain: ALTLFDTDEYRPPVWKSYLYQLQQEAPHPRRVTCTCEVENRPKYYGREYHGMISREETDQLLSVAEGSYLIRESQRQPGTYTLALRFGSQTRNFRLYYDGKHFVGEKRFESIHDLVTDGLITLYIETKAAEYIAKMTINPIYEHIGYTTLNREPAYKQHMAVLKETHDEKEATGQDGVSEKRLTSLVRRATLKENEQIPKYEKVHNFKVHTFRGPHWCEYCANFMWGLIAQGVKCADCGLNVHKQCSKMVPNDCKPDLKHVKKVYSCDLTTLVKAHITKRPMVVDMCIREIESRGLNSEGLYRVSGFSDLIEDVKMAFDRDGEKADISVNMYEDINIITGALKLYFRDLPIPLITYDAYPKFIESAKIMDPDEQLETLHEALRSLPPAHCETLRYLMAHLKRVTLHEKENLMSAENLGIVFGPTLMRSPELDPMAALNDIRYQRLVVELLIKNEDILF
Turning to B4, the binding entry in test [6] and in test [7] was “binds” throughout.

B5: HA-tagged mfy α2-chimerin (exon 9 deleted) (protein, not shown: small tags and cut ends)
chain: MALTLFDTDEYRPPVWKSYLYQLQQEAPHPRRVTCTCEVENRPKYYGREYHGMISREETDQLLSVAEGSYLIRESQRQPGTYTLALRFGSQTRNFRLYYDGKHFVGEKRFESIHDLVTDGLITLYIETKAAEYIAKMTINPIYEHIGYTTLNREPAYKQHMAVLKETHDEKEATGQDGVSEKRLTSLVRRATLKENEQIPKYEKVHNFKVHTFRGPHWCEYCANFMWGLIAQGVKCAGLNSEGLYRVSGFSDLIEDVKMAFDRDGEKADISVNMYEDINIITGALKLYFRDLPIPLITYDAYPKFIESAKIMDPDEQLETLHEALRSLPPAHCETLRYLMAHLKRVTLHEKENLMSAENLGIVFGPTLMRSPELDPMAALNDIRYQRLVVELLIKNEDILF
For the molecule B5, the binding entry in test [1] and in test [3] was “binds” each time.

The record behind these values is US20100242126A1.
